Binding data for two substances are collected here from US20260000764A1 (CITY OF HOPE, published 2026).

The chains behind the UniProt entries cited, without tags or fusion partners. Where a name states a change or a piece, a line headed by the entry shows the natural chain unless it says otherwise.
UniProt P35225: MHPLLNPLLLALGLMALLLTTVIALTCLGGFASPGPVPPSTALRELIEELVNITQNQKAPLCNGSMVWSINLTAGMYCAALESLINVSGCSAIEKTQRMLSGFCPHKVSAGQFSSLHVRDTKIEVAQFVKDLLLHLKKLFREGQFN

No constants are given. Whether binding was seen depends on the method and setting. Some binding calls cover weakened binding; strength is not graded here. Tags and fused reporters may be left off the sequences shown.

Assay [1] has as its target T1, Biotinylated recombinant human IL-13Rα2 ectodomain with C-terminal biotin acceptor peptide and hexahistidine tag (human) (UniProt Q14627).
T1 sequence (chain, biotin on the biotin acceptor peptide (coexpressed with BirA ligase)): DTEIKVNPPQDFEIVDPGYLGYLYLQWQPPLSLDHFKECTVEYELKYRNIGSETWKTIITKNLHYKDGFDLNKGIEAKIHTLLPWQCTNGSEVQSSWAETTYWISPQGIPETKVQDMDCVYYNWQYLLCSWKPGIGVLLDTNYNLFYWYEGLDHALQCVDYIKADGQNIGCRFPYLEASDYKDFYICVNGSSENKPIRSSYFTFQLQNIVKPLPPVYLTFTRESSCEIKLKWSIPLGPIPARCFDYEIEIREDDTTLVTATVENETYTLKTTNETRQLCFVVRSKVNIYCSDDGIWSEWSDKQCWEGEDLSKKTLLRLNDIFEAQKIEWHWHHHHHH
Kind of assay: yeast display, flow cytometry (FIG. 1B legend). A general note: A flow cytometer gives signals particle by particle.

The target of assay [2] is T1, Biotinylated recombinant human IL-13Rα2 ectodomain with C-terminal biotin acceptor peptide and hexahistidine tag (human). Kind of assay: yeast display, flow cytometry with biotinylated receptor and streptavidin-Alexa-647.

In the case of “IL13 C4 displayed on the surface of yeast (from UniProt P35225 35-146) (ligand)”, the binding entry in assay [1] and in assay [2] was “binds” in each case.

In the case of “IL13 D7 displayed on the surface of yeast (from UniProt P35225 35-146) (ligand)”, the binding result in assay [1] and in assay [2] was “binds” each time.
